The values below come from PMC2266940.

Sequences and labels used below:
B1: MTG16-V5 (protein, UniProt O75081 1-653)
chain: MPASRLRDRAASSASGSTCGSMSQTHPVLESGLLASAGCSAPRGPRKGGPAPVDRKAKASAMPDSPAEVKTQPRSTPPSMPPPPPAASQGATRPPSFTPHTHREDGPATLPHGRFHGCLKWSMVCLLMNGSSHSPTAINGAPCTPNGFSNGPATSSTASLSTQHLPPACGARQLSKLKRFLTTLQQFGSDISPEIGERVRTLVLGLVNSTLTIEEFHSKLQEATNFPLRPFVIPFLKANLPLLQRELLHCARLAKQTPAQYLAQHEQLLLDASASSPIDSSELLLEVNENGKRRTPDRTKENGSDRDPLHPEHLSKRPCTLNPAQRYSPSNGPPQPTPPPHYRLEDIAMAHHFRDAYRHPDPRELRERHRPLVVPGSRQEEVIDHKLTEREWAEEWKHLNNLLNCIMDMVEKTRRSLTVLRRCQEADREELNHWARRYSDAEDTKKGPAPAAARPRSSSAGPEGPQLDVPREFLPRTLTGYVPEDIWRKAEEAVNEVKRQAMSELQKAVSDAERKAHELITTERAKMERALAEAKRQASEDALTVINQQEDSSESCWNCGRKASETCSGCNAARYCGSFCQHRDWEKHHHVCGQSLQGPTAVVADPVPGPPEAAHSLGPSLPVGAASPSEAGSAGPSRPGSPSPPGPLDTVPR
B2: MTGR1-V5 (protein, UniProt O43439-2 1-575)
chain: MPGSPVEVKIQSRSSPPTMPPLPPINPGGPRPVSFTPTALSNGINHSPPTLNGAPSPPQRFSNGPASSTSSALTNQQLPATCGARQLSKLKRFLTTLQQFGNDISPEIGEKVRTLVLALVNSTVTIEEFHCKLQEATNFPLRPFVIPFLKANLPLLQRELLHCARAAKQTPSQYLAQHEHLLLNTSIASPADSSELLMEVHGNGKRPSPERREENSFDRDTIAPEPPAKRVCTISPAPRHSPALTVPLMNPGGQFHPTPPPLQHYTLEDIATSHLYREPNKMLEHREVRDRHHSLGLNGGYQDELVDHRLTEREWADEWKHLDHALNCIMEMVEKTRRSMAVLRRCQESDREELNYWKRRYNENTELRKTGTELVSRQHSPGSADSLSNDSQREFNSRPGTGYVPVEFWKKTEEAVNKVKIQAMSEVQKAVAEAEQKAFEVIATERARMEQTIADVKRQAAEDAFLVINEQEESTENCWNCGRKASETCSGCNIARYCGSFCQHKDWERHHRLCGQNLHGQSPHGQGRPLLPVGRGSSARSADCSVPSPALDKTSATTSRSSTPASVTAIDTNGL
B3: ETO-V5 (protein, UniProt Q06455 1-604)
chain: MISVKRNTWRALSLVIGDCRKKGNFEYCQDRTEKHSTMPDSPVDVKTQSRLTPPTMPPPPTTQGAPRTSSFTPTTLTNGTSHSPTALNGAPSPPNGFSNGPSSSSSSSLANQQLPPACGARQLSKLKRFLTTLQQFGNDISPEIGERVRTLVLGLVNSTLTIEEFHSKLQEATNFPLRPFVIPFLKANLPLLQRELLHCARLAKQNPAQYLAQHEQLLLDASTTSPVDSSELLLDVNENGKRRTPDRTKENGFDREPLHSEHPSKRPCTISPGQRYSPNNGLSYQPNGLPHPTPPPPQHYRLDDMAIAHHYRDSYRHPSHRDLRDRNRPMGLHGTRQEEMIDHRLTDREWAEEWKHLDHLLNCIMDMVEKTRRSLTVLRRCQEADREELNYWIRRYSDAEDLKKGGGSSSSHSRQQSPVNPDPVALDAHREFLHRPASGYVPEEIWKKAEEAVNEVKRQAMTELQKAVSEAERKAHDMITTERAKMERTVAEAKRQAAEDALAVINQQEDSSESCWNCGRKASETCSGCNTARYCGSFCQHKDWEKHHHICGQTLQAQQQGDTPAVSSSVTPNSGAGSPMDTPPAATPRSTTPGTPSTIETTPR
B4: MTG16 (myeloid-transforming gene 16) (protein, UniProt O75081-1 1-653)
chain: B1 chain
B5: MTGR1 (MTG-related protein 1) (protein, UniProt O43439-2 1-575)
chain: B2 chain
B6: ETO (eight twenty-one) (protein, UniProt Q06455 1-604)
chain: B3 chain
B7: ETO lacking 30 amino-terminal aminoacids (domain or fragment, UniProt Q06455 31-604)
chain: RTEKHSTMPDSPVDVKTQSRLTPPTMPPPPTTQGAPRTSSFTPTTLTNGTSHSPTALNGAPSPPNGFSNGPSSSSSSSLANQQLPPACGARQLSKLKRFLTTLQQFGNDISPEIGERVRTLVLGLVNSTLTIEEFHSKLQEATNFPLRPFVIPFLKANLPLLQRELLHCARLAKQNPAQYLAQHEQLLLDASTTSPVDSSELLLDVNENGKRRTPDRTKENGFDREPLHSEHPSKRPCTISPGQRYSPNNGLSYQPNGLPHPTPPPPQHYRLDDMAIAHHYRDSYRHPSHRDLRDRNRPMGLHGTRQEEMIDHRLTDREWAEEWKHLDHLLNCIMDMVEKTRRSLTVLRRCQEADREELNYWIRRYSDAEDLKKGGGSSSSHSRQQSPVNPDPVALDAHREFLHRPASGYVPEEIWKKAEEAVNEVKRQAMTELQKAVSEAERKAHDMITTERAKMERTVAEAKRQAAEDALAVINQQEDSSESCWNCGRKASETCSGCNTARYCGSFCQHKDWEKHHHICGQTLQAQQQGDTPAVSSSVTPNSGAGSPMDTPPAATPRSTTPGTPSTIETTPR

These are yes or no findings as the source states them, for the method shown. In cells and extracts the contact can be indirect. Binding calls can cover weak binding; strength is not graded here. For some of these results: Sequences can lack the tags named with a protein.

In one experiment the target is human SIN3B (human). Nature of the experiment: co-IP; COS-7 cells co-transfected with V5-tagged ETO homologues and hSIN3B; IP and Western with α-V5 and α-hSIN3B.
Consider B1, for which the binding entry is recorded as “binds”.
Still for that read-out and setting: under B2 stands “no binding”; under B3, “binds”.

The target of another experiment is human SIN3B (human). Nature of the experiment: co-IP; COS-7 cells co-transfected with pCMV5 constructs; lysis buffer 250 mM NaCl, 20 mM Na-phosphate, 30 mM Na-pyrophosphate (pH 7.0), 5 mM EDTA, 0.1% NP-40; IP overnight with 1 ug α-hSIN3B, α-ETO, α-MTGR1 or α-MTG16 and protein A-Sepharose; Western blot. (A western blot detects proteins with antibodies after separation by electrophoresis.)
Consider B4, for which the binding result is given as “binds”.
The same measure, in the same setting: as for B5, the entry is “no binding”; as for B6, “binds”; as for B7, “no binding”.
